# Over roughly 1,600 compounds, “plate-normalized OD600 growth (mean of duplicates)” has its median near 0.31; the lowest 2% begin near 0.23. The list shows a part of the results.
# System: Escherichia coli BW25113
# Experiment: plate-normalized OD600 growth (mean of duplicates) (OD600 (normalized)); higher = more growth (less inhibition)
# Conditions: 10 µM
# Procedure: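 E. coli BW25113 in LB (100 µl, 96-well, no shaking) was exposed to 10 µM of each compound (here the ChemBridge subset of a ~30,000-member library) and grown at 37°C for 24 h or 15°C for 48 h, in duplicate. Growth was read as OD600 and the duplicate ODs were normalized across screening plates to correct plate-to-plate variation.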
SMILES,"plate-normalized OD600 growth (temperature: 15°C, 48 h)","plate-normalized OD600 growth (temperature: 37°C, 24 h)"
Cn1ncc(Oc2ccc([N+](=O)[O-])cc2)c(Cl)c1=O,0.251,0.636
Cc1ccccc1CN(C)C1CCN(C)CC1,0.256,0.628
O=C(CCCc1ccccc1)Nc1ccc(C(=O)O)cc1,0.244,0.597
Nc1nc(SCC(=O)N2CCCCC2)nc2sc3c(c12)CCCC3,0.247,0.613
CCOc1cc(CN(C)CCN(C)C)ccc1O,0.244,0.643
COc1cc2c(cc1OC)C(c1cccc([N+](=O)[O-])c1)NC(=O)C2 (centres undefined),0.234,0.608
CCSc1sc(SC#N)cc1SC#N,0.207,0.614
COc1ccc(C(C)=O)cc1Cc1c(O)nc(SC)[nH]c1=O,0.247,0.629
Cc1cc(C)n(-c2nc(-c3ccc(F)cc3)cs2)n1,0.254,0.625
N#CCCN(CC(=O)O)S(=O)(=O)c1ccccc1,0.247,0.608
COc1ccccc1OCC(=O)NN,0.252,0.619
Cc1ccc2nc(/C(C#N)=C\c3ccc([N+](=O)[O-])o3)[nH]c2c1,0.243,0.603
COc1ccc(C(=O)Nc2ccc(S(=O)(=O)Nc3nc(C)cc(C)n3)cc2)c(OC)c1,0.251,0.616
O=C(O)CCSc1nc2ccc(Br)cc2[nH]1,0.269,0.651
CC1(C)CC(=O)C2=C(C1)Nc1ccccc1NC2c1ccc([N+](=O)[O-])s1 (centres undefined),0.231,0.604
c1ccc(CCN2CCC(N3CCOCC3)CC2)cc1,0.239,0.618
CCc1c(O)nc(SCC(=O)N(CC)CC)n(C2CCCCC2)c1=O,0.23,0.601
CCN(CC)C(=O)C1CCCN(Cc2cccc(C)c2)C1 (centres undefined),0.25,0.609
Cc1ccc(C(=O)O)cc1NC(=O)c1cccs1,0.239,0.612
CC(=O)Nc1ccc(S(=O)(=O)N2CCCC(CO)C2)cc1 (centres undefined),0.29,0.63
Cc1ccc(CN2CCCC(O)C2)c(C)c1 (centres undefined),0.241,0.635
Cc1cc(C)c(S(=O)(=O)N2CCOCC2)c(C)c1,0.259,0.63

SMILES,"plate-normalized OD600 growth (temperature: 15°C, 48 h)","plate-normalized OD600 growth (temperature: 37°C, 24 h)"
CC(=O)c1cc(F)c(N2CCN(c3ccc([N+](=O)[O-])cc3F)CC2)cc1C,0.263,0.632
N#CC1=C(Nc2ccc(Br)cc2)CCC1,0.248,0.604
CN(C)C(N)=NC(N)=Nc1ccccc1,0.25,0.625
Cc1cc(C)n(C(=O)c2ccccc2Br)n1,0.226,0.655
O=C(O)c1ccc(Nc2ncnc3ccccc23)cc1,0.244,0.64
CCCN(CCO)Cc1ccc(F)c(Br)c1,0.268,0.623
O=c1cc[nH]c2ccc([N+](=O)[O-])cc12,0.259,0.616
O=S(=O)(c1cc(Cl)ccc1Cl)N1CCN(c2ccccc2)CC1,0.25,0.595
COc1ccccc1N1C(=O)CC(N2CCN(c3ccc([N+](=O)[O-])cc3)CC2)C1=O (centres undefined),0.282,0.637
CC(C)Oc1ccccc1C1CC(=O)NC1=O (centres undefined),0.253,0.626
Cc1cccc(NC(=O)c2cccc(I)c2)c1C,0.26,0.63
O=C(O)c1ccc(NS(=O)(=O)c2cccc(C(=O)Nc3ccccc3[N+](=O)[O-])c2)cc1,0.246,0.587
N#CC1=C(N)Oc2c(c(=O)[nH]c3ccccc23)C1c1cc(Br)cs1 (centres undefined),0.249,0.609
COc1ccc(OCC(O)CN2CCN(c3ccccc3)CC2)cc1 (centres undefined),0.253,0.612
Cc1nc(=O)c(-c2ccccc2)c(C)n1-c1ccc(C(=O)O)cc1,0.28,0.639
O=C1c2ccccc2-c2c1cccc2C(=O)N(CCO)CCO,0.241,0.627
N#CC1=C(N)N2C(=C(C#N)C1c1cccs1)Sc1ccccc12 (centres undefined),0.24,0.614
CN(Cc1ccccc1)Cc1ccccn1,0.242,0.622
NS(=O)(=O)c1ccc(NC(=O)c2ccccc2Cl)cc1,0.24,0.604
CCN(CCN(C)C)C1CCCCCC1,0.26,0.618
O=C(c1cccnc1)N1CCN(C(=O)c2ccco2)CC1,0.24,0.631
COc1ccccc1-n1c(SCC(=O)c2ccccc2)nc(O)cc1=O,0.263,0.631

SMILES,"plate-normalized OD600 growth (temperature: 15°C, 48 h)","plate-normalized OD600 growth (temperature: 37°C, 24 h)"
CC(C)NCC(=O)NC12CC3CC(CC(C3)C1)C2,0.266,0.656
Cc1ccc(C)c(C2=NNC(=O)CC2)c1,0.248,0.637
CCOc1ccc(NC(=O)c2cc(C)cc(C)c2)c([N+](=O)[O-])c1,0.25,0.6
COc1ccc(C(=O)O)cc1S(=O)(=O)N1CCOCC1,0.263,0.623
CC1CCc2c(sc(NC(=O)c3c(F)c(F)c(F)c(F)c3F)c2C#N)C1 (centres undefined),0.25,0.616
O=[N+]([O-])c1ccc(Nc2c[nH]c3ccccc23)cc1,0.261,0.615
CCc1ccccc1NC(=O)c1cccc(Br)c1,0.244,0.619
Cc1cccc(CN2CCN(c3ccccn3)CC2)c1,0.241,0.627
Cc1nc2c(=O)[nH]c3ccccc3c2o1,0.249,0.633
OCCN(Cc1ccccc1)Cc1ccccc1F,0.232,0.589
Nc1ccc(Br)cc1C(NCC(=O)O)c1ccccc1 (centres undefined),0.249,0.615
CN1CCCC1CCNC1CC2CCC1C2 (centres undefined),0.299,0.637
COc1ccc(C=C(C#N)c2nc3ccccc3[nH]2)cc1,0.263,0.626
Cn1ccnc1SCC(=O)c1ccc(F)cc1,0.265,0.622
NC(=O)C1CCN(Cc2c(F)cccc2Cl)CC1,0.278,0.66
O=C1CC(N2CCCCCC2)C(=O)N1c1ccccc1 (centres undefined),0.252,0.62
[O-][n+]1onc2c(-c3ccccc3)nnc(-c3ccccc3)c21,0.254,0.616
Cn1c(C=O)nc2cc([N+](=O)[O-])ccc21,0.241,0.625
O=C(O)c1cc(NC(=O)C(c2ccccc2)c2ccccc2)cc(C(=O)O)c1,0.254,0.624
CCc1nc2c([nH]1)c(=O)n(C)c(=O)n2C,0.244,0.597
CSc1nnnn1-c1ccccc1,0.245,0.606
CCCOc1ccc(N2C(=O)CC(N3CCN(c4ccccn4)CC3)C2=O)cc1 (centres undefined),0.247,0.623

# Part of the list above in order of length of the SMILES, falling:
SMILES,"plate-normalized OD600 growth (temperature: 15°C, 48 h)","plate-normalized OD600 growth (temperature: 37°C, 24 h)"
[O-][n+]1onc2c(-c3ccccc3)nnc(-c3ccccc3)c21,0.254,0.616
Cn1ccnc1SCC(=O)c1ccc(F)cc1,0.265,0.622
OCCN(Cc1ccccc1)Cc1ccccc1F,0.232,0.589
CN1CCCC1CCNC1CC2CCC1C2 (centres undefined),0.299,0.637

# More entries.

SMILES,"plate-normalized OD600 growth (temperature: 15°C, 48 h)","plate-normalized OD600 growth (temperature: 37°C, 24 h)"
COc1ccc(OCCCCN2CCCCC2)cc1,0.249,0.614
NC1COS(=O)OC1c1ccc([N+](=O)[O-])cc1 (centres undefined),0.254,0.607
N#CC1=C(N)OC2=C(C(=O)CCC2)C1c1ccccc1[N+](=O)[O-] (centres undefined),0.263,0.624
O=C(O)c1ccc(S(=O)(=O)c2ccc(O)cc2)cc1,0.247,0.592
CC(NC(=O)Nc1cccc(Cl)c1)c1ccccc1 (centres undefined),0.244,0.635
O=S(=O)(c1ccccc1)c1cccc(S(=O)(=O)N2CCOCC2)c1,0.227,0.595
N#CSC(CS(=O)(=O)c1cccc([N+](=O)[O-])c1)c1ccccc1 (centres undefined),0.268,0.652
CN(C)c1ccc(C2CC(=O)NC3=C2C(=O)CC(C)(C)C3)cc1 (centres undefined),0.242,0.65
Nc1ccc(-c2nc3cc(N)ccc3s2)c(O)c1,0.247,0.6
Cc1cc(C)n2nc(C)c(-c3ccc(Cl)cc3)c2n1,0.278,0.662
O=c1[nH]c(SC2C=CCCC2)nc2sc3c(c12)CCCC3 (centres undefined),0.248,0.614
O=C(CSc1ccccn1)c1ccc(Br)cc1,0.233,0.629
O=C(O)c1ccc(S(=O)(=O)c2ccc3c(c2)C(=O)N(c2nccs2)C3=O)cc1,0.241,0.624
Cc1cc(C)n(-c2cccc3cccnc23)n1,0.258,0.612
O=S(=O)(NCC1(c2ccccc2)CCCC1)c1ccccc1,0.238,0.6
O=C(Nc1ccc(Cl)cc1)c1ccccc1Br,0.264,0.633
COc1cccc(OC)c1C(=O)Nc1cccc(C)c1,0.275,0.647
Cc1ccc(C(NC(N)=O)c2ccccc2C)cc1 (centres undefined),0.244,0.605
O=C1CC(C2CCCO2)C(=O)N1c1ccc(Cl)cc1 (centres undefined),0.243,0.618
COc1ccc(CCNC(=O)CSc2nc(N)c3c4c(sc3n2)CCCC4)cc1,0.234,0.595
CN1CCN(NC(=O)c2ccc(Cl)cc2[N+](=O)[O-])CC1,0.24,0.608
Cc1nn(-c2ccccc2)c(C)c1CC(=O)O,0.237,0.617

SMILES,"plate-normalized OD600 growth (temperature: 15°C, 48 h)","plate-normalized OD600 growth (temperature: 37°C, 24 h)"
O=C(/C=C/c1ccc(-c2ccc(F)cc2)o1)c1cccs1,0.253,0.617
O=C1NN=C(c2ccccc2O)C1[N+](=O)[O-] (centres undefined),0.254,0.613
CCOc1ccccc1/C=C/C(=O)c1cccs1,0.245,0.608
COc1ccc(CC(=O)N(Cc2ccccc2)Cc2ccccc2)cc1,0.229,0.62
CCC(Cc1ccccc1)NC(=O)c1ccccc1 (centres undefined),0.267,0.624
Cc1cc(OCC(=O)N(C)Cc2ccccc2)ccc1Cl,0.242,0.612
O=C(O)CC1Sc2ccccc2NC1=O (centres undefined),0.272,0.65
O=c1c2ccccc2nc(CSc2nnnn2-c2ccccc2)n1-c1ccccc1,0.262,0.628
N#CC1=C(N)N2C(=C(C#N)C1c1c(F)cccc1Cl)Sc1ccccc12 (centres undefined),0.27,0.622
O=C(O)c1ccc(NCCCO)c([N+](=O)[O-])c1,0.257,0.613
COc1ccccc1NC(=O)CCC(=O)O,0.253,0.616
O=Cc1ccc2ccc3ccc(C=O)nc3c2n1,0.24,0.608
C=CCSc1nc(N)c(C#N)c(CC)c1C#N,0.239,0.605
O=c1[nH]nc(-c2ccccc2)c2cc3c(-c4ccccc4)n[nH]c(=O)c3cc12,0.243,0.601
O=c1cc(-c2ccc(Cl)cc2)[nH][nH]c1=O,0.277,0.636
Cc1cc(C)n(C(=O)C(c2ccccc2)c2ccccc2)n1,0.237,0.61
CCOc1c([N+](=O)[O-])cc2c(C)c(C(=O)N3CCN(C)CC3)oc2c1OCC,0.241,0.617
Cn1cc(/C=C/c2nc3ccccc3c(=O)[nH]2)c2ccccc21,0.248,0.604
O=C(c1ccc(Br)o1)N1CCN(c2ccc([N+](=O)[O-])cc2)CC1,0.262,0.622
